PubChem BioAssay AID1508588 – Peter MacCallum Cancer Centre, 2020
The whole screen tested about 18,000 reagents; below is a random part of them. In the full data, 790 (4.4%) were called active. 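Calls rest on a combination of fold-change classes in drug and vehicle arms, not all shown here.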 Reagent sequences are not shown.

Aim: 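Genome-wide search for knock-downs that heighten vemurafenib action in melanoma cells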 (primary screen)
Cells: human WM266.4 melanoma cells (BRAF V600 mutant)
Knock-down reagent: siRNA pool against human genes, 40 nM
Time to read-out: 96 h from transfection to read-out
Conditions: vemurafenib 300 nM (about IC25), added 48 h after transfection, for 48 h; comparison arm got DMSO vehicle only
Read-out: 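Ratios to non-targeting siRNA for cell gain, counted as DAPI nuclei after minus before drug and averaged over two replicates, and for absorbance-read medium lactate per cell; both binned into fold-change classes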
Scale: cell gain with vemurafenib: higher = more cell gain than with non-targeting siRNA; lactate per cell with vemurafenib: higher = more lactate made per cell
Call rule: 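Enhancement is called by pairing each knock-down's vehicle-arm and drug-arm fold-change classes for viability or glycolysis; which class combinations qualify is not given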
Calls: active = enhances vemurafenib effect; inactive = no enhancement seen

With knock-down of AKR1D1, the screen gave cell gain with vemurafenib 0.33; lactate per cell with vemurafenib 1.71; inactive. With knock-down of GNB1L, the record shows cell gain with vemurafenib 0.36; lactate per cell with vemurafenib 1.56; inactive. With knock-down of SLX4 the results were cell gain with vemurafenib 0.1; lactate per cell with vemurafenib 0.42; inactive. Depletion of PALM came out at: cell gain with vemurafenib 0.94; lactate per cell with vemurafenib 1; inactive. Silencing of BCAS2 resulted in: cell gain with vemurafenib 0.47; lactate per cell with vemurafenib 0.93; inactive. Against NECTIN3 the deposit lists cell gain with vemurafenib 0.6; lactate per cell with vemurafenib 1.37; inactive.

With knock-down of MTMR2 the results were cell gain with vemurafenib 0.46; lactate per cell with vemurafenib 0.6; inactive. After knock-down of PIGL, the record shows cell gain with vemurafenib 0.19; lactate per cell with vemurafenib 0.84; inactive. CTAGE1 showed cell gain with vemurafenib 0.83; lactate per cell with vemurafenib 0.82; inactive. Silencing of SGIP1 resulted in: cell gain with vemurafenib 1.12; lactate per cell with vemurafenib 0.42; inactive. Knock-down of MORN5 came out at: cell gain with vemurafenib 0.32; lactate per cell with vemurafenib 1.07; inactive. PRSS3 gave cell gain with vemurafenib 0.78; lactate per cell with vemurafenib 0.87; inactive.

DNAJC8 showed cell gain with vemurafenib 0.44; lactate per cell with vemurafenib 0.94; inactive. Depletion of FFAR2 resulted in: cell gain with vemurafenib 0.8; lactate per cell with vemurafenib 1.1; inactive. For SLC2A8 the deposit lists cell gain with vemurafenib 0.55; lactate per cell with vemurafenib 2.15; inactive. Depletion of HS3ST6 gave: cell gain with vemurafenib 0.7; lactate per cell with vemurafenib 1.49; inactive. Knock-down of GHITM came out at: cell gain with vemurafenib 0.94; lactate per cell with vemurafenib 1.26; inactive. Knock-down of FANCM came out at: cell gain with vemurafenib 0.08; lactate per cell with vemurafenib 0.46; active.

For TMEM100 the deposit lists cell gain with vemurafenib 0.61; lactate per cell with vemurafenib 0.94; inactive. Against DLD, the entry reads cell gain with vemurafenib 0.51; lactate per cell with vemurafenib 0.98; inactive. With knock-down of IRF1, the screen gave cell gain with vemurafenib 1.11; lactate per cell with vemurafenib 0.67; inactive. For TM6SF2, the entry reads cell gain with vemurafenib 0.78; lactate per cell with vemurafenib 0.86; inactive. Against ZNF550, the entry reads cell gain with vemurafenib 0.28; lactate per cell with vemurafenib 1.26; inactive. Depletion of KREMEN1 resulted in: cell gain with vemurafenib 0.53; lactate per cell with vemurafenib 1.85; inactive.

ACBD7 gave cell gain with vemurafenib 0.67; lactate per cell with vemurafenib 0.78; inactive. SCD5 showed cell gain with vemurafenib 0.46; lactate per cell with vemurafenib 0.96; inactive. Against TEX9, the values are cell gain with vemurafenib 0.66; lactate per cell with vemurafenib 0.32; inactive. Depletion of ATRX resulted in: cell gain with vemurafenib 0.85; lactate per cell with vemurafenib 0.52; inactive. OR52R1 scored cell gain with vemurafenib 0.52; lactate per cell with vemurafenib 1.61; inactive. After knock-down of METTL3, the record shows cell gain with vemurafenib 0.81; lactate per cell with vemurafenib 1.15; inactive.

After knock-down of WDR38 the results were cell gain with vemurafenib 0.5; lactate per cell with vemurafenib 0.8; inactive. With knock-down of THAP3 the results were cell gain with vemurafenib 0.13; lactate per cell with vemurafenib 0.5; inactive. Against RPL10, the values are cell gain with vemurafenib -0.01; lactate per cell with vemurafenib 2.41; inactive. Against GPR155, the values are cell gain with vemurafenib 0.67; lactate per cell with vemurafenib 1.6; inactive. After knock-down of LTBR, the screen gave cell gain with vemurafenib 0.15; lactate per cell with vemurafenib 0.63; inactive. Against NPC2, the entry reads cell gain with vemurafenib 0.77; lactate per cell with vemurafenib 0.82; inactive.

Knock-down of ELP4 gave: cell gain with vemurafenib 0.75; lactate per cell with vemurafenib 1.01; inactive. With knock-down of PIBF1, the screen gave cell gain with vemurafenib 0.6; lactate per cell with vemurafenib 0.97; inactive. After knock-down of CCDC28A the results were cell gain with vemurafenib 0.59; lactate per cell with vemurafenib 0.61; inactive. FAM120AOS scored cell gain with vemurafenib 0.4; lactate per cell with vemurafenib 2.04; inactive. SNRNP40 scored cell gain with vemurafenib 0.46; lactate per cell with vemurafenib 1.45; inactive. For PRSS1, the values are cell gain with vemurafenib 0.67; lactate per cell with vemurafenib 0.68; inactive.

For KIR2DS3 the deposit lists cell gain with vemurafenib 0.94; lactate per cell with vemurafenib 1.08; inactive. MFSD8 showed cell gain with vemurafenib 0.87; lactate per cell with vemurafenib 0.65; inactive. With knock-down of CHRM1, the screen gave cell gain with vemurafenib 0.79; lactate per cell with vemurafenib 0.8; inactive. Silencing of MYL11 came out at: cell gain with vemurafenib 0.24; lactate per cell with vemurafenib 0.69; active. NPIPB15 scored cell gain with vemurafenib 0.16; lactate per cell with vemurafenib 2.12; inactive. Depletion of CHTOP resulted in: cell gain with vemurafenib 0.46; lactate per cell with vemurafenib 1.09; inactive.

With knock-down of SEPTIN2, the record shows cell gain with vemurafenib 0.5; lactate per cell with vemurafenib 1.2; inactive. NDUFA13 gave cell gain with vemurafenib 0.59; lactate per cell with vemurafenib 1.57; inactive. For MCRIP2, the values are cell gain with vemurafenib 0.33; lactate per cell with vemurafenib 1.26; inactive. With knock-down of KRT32, the screen gave cell gain with vemurafenib 0.13; lactate per cell with vemurafenib 1.59; inactive.
